Test results from PubChem BioAssay AID2685 (National Center for Advancing Translational Sciences (NCATS), 2010).
The other results are listed elsewhere or left out. The main result of the screen is listed elsewhere. These columns were measured beside it and carry no call. The list favours compounds with an active or inconclusive main result. Words in brackets tell the shape of the fitted curve; partial curves, single points and poor fits give uncertain potencies.

Test: qHTS Assay for Lipid Storage Modulators in Drosophila S3 Cells;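 as to cell number change: cells counted by Cell Tracker Red CMTPX staining in the red channel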
Settings: BODIPY lipid droplet fluorescence, 18-24 h; for cell number change: measured here: cell count max response, cells fed with added oleic acid
In short: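 Laser-scanning cytometry quantifies lipid droplet accumulation (500–530 nm total intensity; droplet/cell object ratio) in oleic acid-fed (400 uM added) Drosophila S3 cells treated with a concentration series. 20 uM Triacsin C defined 100% inhibition.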

[1] = measured here: cell number channel AC50, cells fed with added oleic acid
[2] = measured here: lipid fluorescence (Fed channel) AC50, cells fed with added oleic acid

SMILES	cell number change [%]	AC50 [1]	AC50 [2]
CCC(C)(C(=O)NC1CCCCC1)N(Cc1ccco1)C(=O)CNC(=O)c1ccccc1 (stereo not drawn)	40.5	5.8 µM [rising, single point]	5.17 µM [rising, single point]
O=C(O)COc1ccccc1/C=N/NC(=O)CSc1nc2ccccc2n1Cc1ccc(Cl)cc1	63.5	–	–
Cc1nc(CN2CCOCC2)cc(=O)[nH]1	-54.6	29.1 µM [falling, single point]	20.6 µM [falling, single point]
Cc1ccc(CNC(=O)CN(C)C2=NS(=O)(=O)c3ccccc32)cc1	-7.91	–	6.51 µM [falling, single point]
CC(=O)N1CC(C)Sc2ccc(S(=O)(=O)NCc3ccccc3Cl)cc21 (stereo not drawn)	4.42	–	29.1 µM [falling, single point]
N#C/C(=C\c1ccncc1)c1nc2c(s1)CCCC2	66	–	–
Cc1cccc(N(O)C(=O)Nc2cccc(Cl)c2)c1	-21.7	–	–
Cc1cccc(NC(=O)C(=O)NCc2ccc3c(c2)OCO3)c1C	23.2	–	1.84 µM [rising, partial curve, poor fit]
O=c1cc(-c2ccncc2)oc2c1ccc1ccccc12	-13.8	–	29.1 µM [falling, single point]
CC(C)(C)C(=O)OCc1nc(-c2ccc(O)c(O)c2)cs1	-2.24	–	32.6 µM [falling, single point]
O=C(Nc1ccc(C2=NCCN2)cc1)c1ccc(Cl)c(C(=O)Nc2ccc(C3=NCCN3)cc2)c1	79.4	1.16 µM [rising, full curve]	1.64 µM [rising, full curve]
COc1ccccc1N(CCC#N)C(=O)CSc1nnc2ccccn12	-26	0.82 µM [falling, full curve, poor fit]	1.3 µM [falling, full curve]
COc1cccc(-n2cnc3scc(-c4cccs4)c3c2=O)c1	-13.4	–	–
Cc1cc(C)c(C(=O)NCC2CCCO2)c(C)c1C(=O)NCC1CCCO1 (stereo not drawn)	-0.901	–	–
O=S(=O)(c1cnccc1N1CCN(/N=C/c2ccccc2)CC1)N1CCCCC1	-31.9	8.2 µM [falling, partial curve, poor fit]	–
COc1ccc(-c2oc3ccccc3c(=O)c2OC(C)=O)cc1	-29.6	4.11 µM [falling, full curve, poor fit]	3.26 µM [falling, partial curve, poor fit]
CCNc1nc(NCC)n2c(SCC(=O)c3ccccc3F)nnc2n1	29.1	–	6.51 µM [falling, single point]
CC(=O)Nc1cccc(NC(=O)C2CCCN2C(=O)Nc2cccc(F)c2)c1 (stereo not drawn)	5.78	–	29.1 µM [rising, single point]
Cc1cc(C)n2nc(N)c(N=Nc3ccc(Cl)cc3)c2n1	17	–	1.84 µM [rising, full curve]
Cc1ccc(NC(=O)C2CCCN2C(=O)OCc2ccccc2)c(O)c1 (stereo not drawn)	21	–	0.146 µM [rising, full curve, poor fit]
Cc1cc(Cl)ccc1NC(=O)C(=O)N/N=C/c1ccc2c(c1)OCO2	-4.78	–	6.51 µM [rising, single point]
CN(C)c1ccc(C(=O)OCC(=O)NC2CCCCCC2)cc1	–	–	6.51 µM [rising, single point]

SMILES	cell number change [%]	AC50 [1]	AC50 [2]
CC(=O)N1c2ccc(S(=O)(=O)NCc3ccccc3Cl)cc2CC1C (stereo not drawn)	–	–	5.17 µM [falling, single point]
NC(=NCCCCCCN=C(N)/N=C(\N)Nc1ccc(Cl)cc1)/N=C(\N)Nc1ccc(Cl)cc1	-27.4	–	29.1 µM [falling, single point]
COc1cc(CCCN2CCNC[C@@H]2Cc2ccc(O)cc2)cc(OC)c1OC	23.6	–	14.6 µM [rising, single point]
O=C(/C=C/c1cccc(Cl)c1)NCc1cccs1	37.5	1.46 µM [rising, single point]	29.1 µM [rising, single point]
COc1ccc(NC(=O)CC(C)=O)c(OC)c1	-0.131	–	–
C/C(=N\Nc1ccc(S(=O)(=O)Nc2ccccc2)cc1[N+](=O)[O-])c1ccncc1	-23.9	–	0.651 µM [falling, full curve]
Cc1ccc(S(=O)(=O)NC(CC(=O)O)c2cccs2)cc1 (stereo not drawn)	-1.22	–	0.00461 µM [falling, full curve, poor fit]
COc1ccc(/C=C2\CN(Cc3ccccc3)C/C(=C\c3ccc(OC)cc3)C2=O)cc1	12	–	–
O=C(CSc1nnc(NC(=O)c2ccccc2F)s1)NC1CC1	11.8	–	–
O=C(O)c1ccc(-n2ncc3c2/C(=C/c2cccc([N+](=O)[O-])c2)CC3)cc1	–	–	0.517 µM [falling, full curve]
Cc1cc(C)n(C(=O)/C(C#N)=C/N(C)C)n1	–	–	0.731 µM [rising, single point]
COc1ccc(/C=C(\NC(=O)c2ccco2)C(=O)NCCc2nc3ccccc3[nH]2)cc1	27.1	–	0.731 µM [falling, single point]
CCN(CC)c1ccc(/C=C2\CCC(/C=N/NC(=O)c3ccc(=O)n(C)c3)=C2N2CCOCC2)cc1	-11.4	–	6.51 µM [falling, partial curve]
Cc1ccc(CN(c2ccc(C(=O)NCc3ccc4c(c3)OCO4)cc2)S(C)(=O)=O)cc1	0.965	4.11 µM [rising, partial curve, poor fit]	–
Cc1cc(C)c(S(=O)(=O)NCC2CCC(C(=O)NCCCN3CCC(C)CC3)CC2)c(C)c1 (stereo not drawn)	-0.33	–	0.13 µM [rising, full curve, poor fit]
COc1ccccc1C1CC(=O)NC(SCC(=O)Nc2ccccc2)=C1C#N (stereo not drawn)	–	–	0.0058 µM [falling, full curve, poor fit]
Nc1cc(Cl)ccc1Oc1ccccc1	-21	–	–
C#CCOCCOCCOCCNc1nc(N2CCOCC2)nc(N2CCN(C(=O)CCCCCCCCCCNC(=O)[C@H](CO)n3cc(CCCCCN)nn3)CC2)n1	-10.7	–	25.9 µM [falling, partial curve, poor fit]
CCn1c(SCC(=O)NCc2ccco2)nnc1-c1ccc(N)cc1	-31.1	3.66 µM [falling, full curve]	–
c1coc(-c2nnc(-c3ccc4c(c3)OCO4)o2)c1	-18.8	–	11.6 µM [rising, partial curve, poor fit]
Cc1[nH]nc(N2CCCCCC2)c1[N+](=O)[O-]	-0.486	–	7.31 µM [rising, single point]
CC(C)(C)NC(=O)C1N(c2cccnc2)C(=O)C2C(C(=O)Nc3ccccc3F)C3(C)C=CC21O3 (stereo not drawn)	4.5	–	–

SMILES	cell number change [%]	AC50 [1]	AC50 [2]
CNC(=O)c1ccsc1NC(=O)c1ccc(S(=O)(=O)N2CCCc3ccccc32)cc1	12.7	–	–
NC(=O)N/N=C/c1ccc(-c2ccc([N+](=O)[O-])cc2)o1	37.1	1.84 µM [rising, partial curve]	5.8 µM [rising, full curve]
N#Cc1cccc(NC(=O)COC(=O)c2ccc3c(=O)n4c(nc3c2)CCC4)c1	40.6	9.2 µM [rising, partial curve]	–
NCCSC1CC(=O)N(c2ccc(Cl)c(Cl)c2)C1=O (stereo not drawn)	-7.87	–	–
CCOC(=O)C(CCSC)NC(=O)CN (stereo not drawn)	-22.4	–	–
Cc1ccc2c(c1)CN1CN2Cc2cc(C)ccc21	-2.39	0.146 µM [rising, full curve, poor fit]	–
CC(=O)Nc1nc2cc(N)ccc2s1	0.368	–	0.517 µM [falling, partial curve, poor fit]
CC(C)Oc1ccc(OCCn2c(S(=O)(=O)O)nc3c(N)ncnc32)cc1	16.2	–	29.1 µM [rising, single point]
CC(C)N1C(=O)c2ccc(C(=O)O)cc2C1=O	-26.6	–	8.2 µM [falling, partial curve]
CC(C)[C@H](NC(=O)C1CCN(C(=O)[C@H](Cc2ccccc2)NC(=O)OC(C)(C)C)CC1)C(=O)O	19.8	–	–
Cc1ccc(C)c(NC(=O)Nn2cnnc2)c1	15.3	–	29.1 µM [rising, single point]
O=C(O)c1cccc(NC(=O)C2CCCO2)c1 (stereo not drawn)	-97.6	25.9 µM [falling, partial curve]	–
COC(=O)Nc1sc2c(c1C(=O)NCc1ccco1)CCCC2	37.1	0.731 µM [rising, full curve]	–
NC(=O)c1nsc(C(=O)N(c2ccccc2F)C(C(=O)NCc2ccc(F)cc2)c2ccc(O)cc2)c1N (stereo not drawn)	28.2	–	–
Cc1cc(N2CCN(C(=O)c3ccco3)CC2)n2nc(C)c(-c3ccc(Cl)cc3)c2n1	–	0.92 µM [rising, partial curve]	2.59 µM [rising, partial curve]
Cn1c(=O)n(C)c2cc(S(=O)(=O)NCCc3ccccc3)ccc21	-23.6	–	1.03 µM [rising, full curve, poor fit]
CC/C(C)=N/Nc1cccc([N+](=O)[O-])c1	13.9	–	14.6 µM [rising, partial curve]
O=C(Nc1ccccc1Cl)ON=C1c2ccccc2-c2ccccc21	–	–	4.11 µM [falling, partial curve]
Nc1nc(SCC(=O)Nc2cccc(S(=O)(=O)N3CCCCCC3)c2)n[nH]1	-6.56	–	–
O=C(CSc1nnc(-c2cccs2)n1Cc1ccco1)c1ccc2c(c1)OCO2	-8.72	–	0.651 µM [rising, full curve]

Copied from the entries so far, 3 compounds:
SMILES	cell number change [%]	AC50 [1]	AC50 [2]
Cc1ccc2c(c1)CN1CN2Cc2cc(C)ccc21	-2.39	0.146 µM [rising, full curve, poor fit]	–
CC(=O)Nc1nc2cc(N)ccc2s1	0.368	–	0.517 µM [falling, partial curve, poor fit]
CC(C)Oc1ccc(OCCn2c(S(=O)(=O)O)nc3c(N)ncnc32)cc1	16.2	–	29.1 µM [rising, single point]
